Data as given in PubChem BioAssay AID1224830 (NIAID, 2016).

- Purpose: 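Genes whose knock-down alters the TNF-alpha reporter response to LPS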 (primary screen)
- Cells: human THP-1 monocytic leukaemia cells, TNF dual-luciferase reporter clone, PMA-differentiated to macrophage-like cells
- Reagents: siRNA pool against human genes, 50 nM
- Duration: LPS for 4 h, given about 3 days after siRNA transfection
- Challenge: bacterial LPS (TLR4 ligand), 10 ng/ml
- Measured: 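TNF firefly reporter luminescence divided by renilla, normalised to the plate median, then turned into a robust z-score for each replicate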
- Direction: TNF reporter robust z-score: higher = stronger TNF reporter response to LPS
- Call rule: 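a well is active when its z-score exceeds 2.8 or falls below -1.5; control wells carry no call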
Shown is a random part of about 18,000 reagents. Of all reagents, about 2,900 (16%) are marked active. 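Calls are made per well; low scores hint the gene aids the LPS response, high scores that it dampens it.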 Entries without a mark were called inactive. Repeated entries: four replicate wells of each siRNA pool. No sequences are given here.

Target gene	TNF reporter robust z-score
FLII (GeneID 2314)	-0.24
FLII (GeneID 2314)	0.33
FLII (GeneID 2314)	0.79
FLII (GeneID 2314)	-0.04
C1orf74 (GeneID 148304)	0.01
C1orf74 (GeneID 148304)	-0.54
C1orf74 (GeneID 148304)	-0.86
C1orf74 (GeneID 148304)	-0.49
PIK3IP1 (GeneID 113791)	-0.47
PIK3IP1 (GeneID 113791)	1.76
PIK3IP1 (GeneID 113791)	0.38
PIK3IP1 (GeneID 113791)	0.26
HSPB7 (GeneID 27129)	0.13
HSPB7 (GeneID 27129)	0.98
HSPB7 (GeneID 27129)	0.7
HSPB7 (GeneID 27129)	0.95
GDF9 (GeneID 2661)	-2.31 (active)
GDF9 (GeneID 2661)	-1.72 (active)
GDF9 (GeneID 2661)	-1.67 (active)
GDF9 (GeneID 2661)	-1.29
SGSH (GeneID 6448)	-0.11
SGSH (GeneID 6448)	-0.05
SGSH (GeneID 6448)	-0.24
SGSH (GeneID 6448)	0.37
CIMIP1 (GeneID 128602)	1.6
CIMIP1 (GeneID 128602)	1.51
CIMIP1 (GeneID 128602)	1.83
CIMIP1 (GeneID 128602)	2.73
NFATC4 (GeneID 4776)	-1
NFATC4 (GeneID 4776)	-1.31
NFATC4 (GeneID 4776)	2.06
NFATC4 (GeneID 4776)	0.34
OAS1 (GeneID 4938)	1.14
OAS1 (GeneID 4938)	1.91
OAS1 (GeneID 4938)	-0.52
OAS1 (GeneID 4938)	0.01
RABGGTA (GeneID 5875)	-1.02
RABGGTA (GeneID 5875)	-1.06
RABGGTA (GeneID 5875)	-0.64
RABGGTA (GeneID 5875)	-1.31
PEX2 (GeneID 5828)	40.4 (active)
PEX2 (GeneID 5828)	-1.04
PEX2 (GeneID 5828)	-1.01
PEX2 (GeneID 5828)	-0.64
SRPK3 (GeneID 26576)	0.5
SRPK3 (GeneID 26576)	0.51
SRPK3 (GeneID 26576)	-0.22
SRPK3 (GeneID 26576)	0.6
GPR68 (GeneID 8111)	-0.57
GPR68 (GeneID 8111)	-0.71
GPR68 (GeneID 8111)	-0.63
GPR68 (GeneID 8111)	-0.55
STAMBPL1 (GeneID 57559)	-0.12
STAMBPL1 (GeneID 57559)	0.05
STAMBPL1 (GeneID 57559)	0.34
STAMBPL1 (GeneID 57559)	1.09
CELA2B (GeneID 51032)	-0.67
CELA2B (GeneID 51032)	-0.23
CELA2B (GeneID 51032)	0.33
CELA2B (GeneID 51032)	-0.37
ZNF439 (GeneID 90594)	1.8
ZNF439 (GeneID 90594)	1.21
ZNF439 (GeneID 90594)	1.53
ZNF439 (GeneID 90594)	2.08
LGALS7B (GeneID 653499)	0.3
LGALS7B (GeneID 653499)	-0.43
LGALS7B (GeneID 653499)	-0.7
LGALS7B (GeneID 653499)	-0.09

A portion of the results above, as a working copy:
Target gene	TNF reporter robust z-score
GDF9 (GeneID 2661)	-1.29
SGSH (GeneID 6448)	-0.11
SGSH (GeneID 6448)	-0.05
SGSH (GeneID 6448)	-0.24
SGSH (GeneID 6448)	0.37
CIMIP1 (GeneID 128602)	1.6
CIMIP1 (GeneID 128602)	1.51
CIMIP1 (GeneID 128602)	1.83
CIMIP1 (GeneID 128602)	2.73
NFATC4 (GeneID 4776)	-1

The listing continues:
Target gene	TNF reporter robust z-score
OR1E2 (GeneID 8388)	-0.68
OR1E2 (GeneID 8388)	-0.64
OR1E2 (GeneID 8388)	-0.52
OR1E2 (GeneID 8388)	-0.55
THAP2 (GeneID 83591)	0.32
THAP2 (GeneID 83591)	0.18
THAP2 (GeneID 83591)	0.65
THAP2 (GeneID 83591)	0.98
B3GNT2 (GeneID 10678)	-0.62
B3GNT2 (GeneID 10678)	1.01
B3GNT2 (GeneID 10678)	-0.18
B3GNT2 (GeneID 10678)	-0.34
MROH8 (GeneID 140699)	0.31
MROH8 (GeneID 140699)	0.43
MROH8 (GeneID 140699)	0.59
MROH8 (GeneID 140699)	0.6
ABCG4 (GeneID 64137)	-1.64 (active)
ABCG4 (GeneID 64137)	-0.35
ABCG4 (GeneID 64137)	-0.56
ABCG4 (GeneID 64137)	-0.13
DEFB134 (GeneID 613211)	-0.4
DEFB134 (GeneID 613211)	-0.18
DEFB134 (GeneID 613211)	-0.37
DEFB134 (GeneID 613211)	-0.81
EMG1 (GeneID 10436)	1.15
EMG1 (GeneID 10436)	0.26
EMG1 (GeneID 10436)	0.97
EMG1 (GeneID 10436)	1.11
ZDHHC15 (GeneID 158866)	-0.78
ZDHHC15 (GeneID 158866)	-0.88
ZDHHC15 (GeneID 158866)	-1.21
ZDHHC15 (GeneID 158866)	-0.11
SFTPA2B (retired record) (GeneID 6436)	-0.39
SFTPA2B (retired record) (GeneID 6436)	-0.99
SFTPA2B (retired record) (GeneID 6436)	-0.62
SFTPA2B (retired record) (GeneID 6436)	1.22
CRISPLD2 (GeneID 83716)	1.21
CRISPLD2 (GeneID 83716)	2.55
CRISPLD2 (GeneID 83716)	0.69
CRISPLD2 (GeneID 83716)	2.34
CYTH4 (GeneID 27128)	-0.52
CYTH4 (GeneID 27128)	0.59
CYTH4 (GeneID 27128)	-1.15
CYTH4 (GeneID 27128)	-0.19
